The assay has as its target T1, Drosophila Tribbles (Trbl), wild type, yeast two-hybrid bait (FLAGTRBL) (Drosophila) (UniProt Q9V3Z1).
T1 sequence: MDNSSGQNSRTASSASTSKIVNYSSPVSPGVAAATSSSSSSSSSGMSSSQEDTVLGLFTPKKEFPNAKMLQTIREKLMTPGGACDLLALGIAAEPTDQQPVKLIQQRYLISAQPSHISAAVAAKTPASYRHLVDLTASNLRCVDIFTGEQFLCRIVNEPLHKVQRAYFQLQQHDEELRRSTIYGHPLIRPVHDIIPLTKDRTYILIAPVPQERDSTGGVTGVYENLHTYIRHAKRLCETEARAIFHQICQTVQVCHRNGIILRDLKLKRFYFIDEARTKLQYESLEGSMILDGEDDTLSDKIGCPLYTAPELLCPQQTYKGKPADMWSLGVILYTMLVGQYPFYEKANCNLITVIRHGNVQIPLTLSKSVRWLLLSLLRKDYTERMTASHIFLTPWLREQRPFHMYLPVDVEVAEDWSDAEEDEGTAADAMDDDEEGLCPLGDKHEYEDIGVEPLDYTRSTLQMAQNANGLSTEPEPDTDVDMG
The assay is described as follows: two-hybrid; Trbl in the bait vector, Akt1 in the prey vector; yeast growth on HIS- dropout plates with increasing 3-Amino-1,2,4-triazole (3AT), up to 50 mM.

These are yes or no findings as the source states them, for the method shown. Some binding calls cover weakened binding; strength is not graded here. Sequences can lack the tags named with a protein.

This is an account of results in article PMC4198113.

B1: Drosophila Akt1, yeast two-hybrid prey (enzyme, UniProt Q8INB9-2 1-530)
chain: MSINTTFDLSSPSVTSGHALTEQTQVVKEGWLMKRGEHIKNWRQRYFVLHSDGRLMGYRSKPADSASTPSDFLLNNFTVRGCQIMTVDRPKPFTFIIRGLQWTTVIERTFAVESELERQQWTEAIRNVSSRLIDVGEVAMTPSEQTDMTDVDMATIAEDELSEQFSVQGTTCNSSGVKKVTLENFEFLKVLGKGTFGKVILCREKATAKLYAIKILKKEVIIQKDEVAHTLTESRVLKSTNHPFLISLKYSFQTNDRLCFVMQYVNGGELFWHLSHERIFTEDRTRFYGAEIISALGYLHSQGIIYRDLKLENLLLDKDGHIKVADFGLCKEDITYGRTTKTFCGTPEYLAPEVLDDNDYGQAVDWWGTGVVMYEMICGRLPFYNRDHDVLFTLILVEEVKFPRNITDEAKNLLAGLLAKDPKKRLGGGKDDVKEIQAHPFFASINWTDLVLKKIPPPFKPQVTSDTDTRYFDKEFTGESVELTPPDPTGPLGSIAEEPLFPQFSYQGDMASTLGTSSHISTSTSLASMQ
As to B1, the binding entry is “binds”.
